# In ChEMBL document CHEMBL1154721, “Synthesis, antitumor activity and molecular docking study of novel sulfonamide-Schiff's bases, thiazolidinones, benzothiazinones and their C-nucleoside derivatives” (Eur J Med Chem, 2010):
# Key:
# HeLa = assay: Cytotoxicity against human HeLa cells after 48 hrs by SRB assay; type: functional, cell-based
# Summary of the method: (§1)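 Cells were seeded and left 24 h to attach before dosing, then exposed to test compound at […], in triplicate wells per dose. Incubation was 48 h at 37 °C under 5% CO2. Cells were then fixed, washed and stained with sulforhodamine B, excess dye was removed with acetic acid, bound dye was recovered in Tris-EDTA buffer, and colour intensity was read on an ELISA reader.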
# MCF7 = assay: Cytotoxicity against human MCF7 cells after 48 hrs by SRB assay; type: functional, cell-based; summary of the method: as §1
smiles,measurement,setting,value
COc1cccc2c1C(=O)c1c(O)c3c(c(O)c1C2=O)C[C@@](O)(C(=O)CO)C[C@@H]3O[C@H]1C[C@H](N)[C@H](O)[C@H](C)O1 [DOXORUBICIN],IC50,HeLa,8.72 µg/mL
same,IC50,MCF7,6.71 µg/mL
